Laboratory results published in the supplement of paper PMC10735217.
This is one part of the list. This data set is noisy: repeats of one test often differ as much as different tests do.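 The human kidney-derived cells carry a stably integrated construct of eight TEAD-binding elements driving luciferase, read by luminescence in a drug-repurposing library screen. A compound counts as a hit when its signal is more than five robust Z scores above the plate mean.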

System: HEK293A TEAD-LUC reporter
Assay: TEAD-luciferase reporter activity (YAP activation), robust Z score vs plate; higher = stronger YAP/TEAD activation
Conditions: 24 h

Row | SMILES | TEAD-luciferase reporter activity (compound concentration: 200 nM) | TEAD-luciferase reporter activity (compound concentration: 2 uM) | TEAD-luciferase reporter activity (compound concentration: 10 uM)
1 | CCc1oc(-c2ccc(OC)cc2)nc1CCOc1ccc2c(c1)CCC2CC(=O)O (configuration not stated) | inactive: -1.34 | inactive: -0.163 | inactive: 0.0382
2 | COc1ccc(C(=O)Nc2cc(Cl)cnc2Cl)c2cccnc12 | inactive: 3.39 | inactive: -0.387 | inactive: 2.81
3 | CCCCOCC(O)COc1ccccc1 (configuration not stated) [febuprol] | inactive: 0.297 | inactive: -2.07 | inactive: 0.0495
4 | CN(C)N=Nc1nc2c(c(=O)n(C)c(=O)n2C)n1C | inactive: -1.87 | inactive: -0.812 | inactive: 1.34
5 | CN1CCc2cc(Cl)c(O)cc2[C@@H](c2cccc3c2OCC3)C1 [Odapipam acetate] | inactive: 3.1 | inactive: 0.529 | inactive: 0.452
6 | Cc1ccc(-n2nc(C(C)(C)C)cc2NC(=O)NCc2cc(F)ccc2Oc2ccc3c(cnn3CCO)c2)cc1 [Pexmetinib] | inactive: -0.3 | inactive: -0.982 | inactive: -1.55
7 | Cc1ccc(-n2nc(C(C)(C)C)cc2NC(=O)NCc2cc(F)ccc2Oc2ccc3c(cnn3CCO)c2)cc1 |  | inactive: -1.1 | 
8 | O=C(NCCNC(=O)c1ccccn1)c1ccc(-c2cncnc2)cc1 | inactive: -0.16 |  | inactive: 1.72
9 | CCCCCN(CCCOC)C(=O)C(CCC(=O)O)CS(=O)(=O)c1ccc2ccccc2c1 (configuration not stated) | inactive: 1.25 | inactive: 0.0879 | inactive: 0.0116
10 | O=C([C@@H](O)CO)N1CC=C(c2c(F)cc(N3C[C@H](COc4ccon4)OC3=O)cc2F)CC1 | inactive: -2.02 |  | inactive: -0.00807
11 | C[C@@H]1C[C@H]2O[C@@H]2/C=C\C=C\C(=O)Cc2c(Cl)c(O)cc(O)c2C(=O)O1 [Radicicol] | inactive: -0.203 | inactive: 3.25 | inactive: -0.00193
12 | COc1ccc(-c2nc3c4ccccc4ccc3n2C(C)C)cc1 | inactive: -0.101 | inactive: 1.81 | inactive: 0.916
13 | O=C(CCCCCCC(=O)Nc1cccnc1)NO [pyroxamide, Aton Pharma] | inactive: -0.0364 |  | inactive: 0.607
14 | O=C(CCCCCCC(=O)Nc1cccnc1)NO [pyroxamide] |  | inactive: 4.61 | 
15 | Cc1nc2cnccc2n1CC1CCN(C(=O)CC(c2ccccc2)c2ccccc2)CC1 | inactive: -1.33 | inactive: -1.35 | inactive: 0.522
16 | O=C(Cc1ccc(F)cc1)N1CCC(C(=O)N2CCC(c3ccccc3)CC2)CC1 | inactive: -1.47 |  | inactive: 2.32
17 | CN1CCN(CCOc2cc(OC3CCOCC3)c3c(Nc4c(Cl)ccc5c4OCO5)ncnc3c2)CC1 [saracatinib] | inactive: 0.0164 | inactive: -2.16 | inactive: -1.82
18 | c1ccc(-c2nnc(O[C@@H]3[C@@H]4C[C@@H]5C[C@H]3CN(C5)C4)s2)cc1 [Nelonicline] | inactive: -0.245 | inactive: -0.182 | inactive: 0.0739
19 | O=C(Nc1ccc(Cl)c2ccccc12)C1CCN(C(=O)Cn2c(=O)sc3ccc(Cl)cc32)CC1 | inactive: -1.16 | inactive: 0.434 | inactive: 1.22

Row | SMILES | TEAD-luciferase reporter activity (compound concentration: 200 nM) | TEAD-luciferase reporter activity (compound concentration: 2 uM) | TEAD-luciferase reporter activity (compound concentration: 10 uM)
20 | CCOP(=O)(CCCCCCOc1ccc(OC)cc1Cl)OCC | inactive: -0.291 | inactive: -0.792 | inactive: 0.156
21 | CC(C)NS(=O)(=O)CCN1C(=O)c2ccccc2C1=O [taltrimide] | inactive: -1.51 | inactive: -0.134 | inactive: -2
22 | CC(=O)O[C@]1(C(C)=O)CCC2C3C=C(Cl)C4=CC(=O)CCC4(C)C3CCC21C (some centres not stated) | inactive: 0.0871 |  | inactive: -2.24
23 | CC(=O)O[C@]1(C(C)=O)CCC2C3C=C(Cl)C4=CC(=O)CCC4(C)C3CCC21C (some centres not stated) [Chlormadi    acetate] |  | inactive: -0.879 | 
24 | CN(C(=O)CO/N=C(/c1ccccc1)c1ccc2c(c1)CN1CC(=O)NC1=N2)C1CCCCC1 | inactive: -1.08 | inactive: -0.247 | inactive: 0.158
25 | Cn1c(=O)c2c(nc(CCN3CCNCC3)n2C)n(C)c1=O | inactive: 0.215 | inactive: 1.66 | inactive: 1.91
26 | CCCCc1oc2ccc(C(=O)OC(C)C)cc2c1C(=O)c1ccc(CCCN(CCCC)CCCC)cc1 | inactive: -0.379 | inactive: 0.671 | inactive: 1.82
27 | O=C(OOC(=O)c1ccccc1)c1ccccc1 [benzoyl peroxide, Advanced] | inactive: -0.571 | inactive: -1.36 | inactive: -0.682
28 | O=S(=O)([O-])O/N=C1\CCn2c(C3CCCCC3)nc3c(Cl)ccc1c32 | inactive: -0.945 | inactive: -1.11 | inactive: -0.584
29 | CCc1nc(N)nc(N)c1-c1ccc(Cl)cc1 [Pyrimethamine58-14-0] | inactive: 0.321 |  | inactive: 0.566
30 | CCc1nc(N)nc(N)c1-c1ccc(Cl)cc1 [pyrimethamine] |  | inactive: 1.2 | 
31 | CC(C)C(CO)NS(=O)(=O)c1ccc(Cl)s1 (configuration not stated) | inactive: 0.668 | inactive: -0.776 | inactive: -0.163
32 | Fc1ccc2c(c1)[C@H](OCc1c(F)cccc1F)[C@@H](Cn1ccnc1)S2 | inactive: 1.07 | inactive: 0.98 | inactive: -1.82
33 | [O]=[Bi][Cl] | inactive: -0.354 | inactive: 3.16 | inactive: -1.31
34 | O=C(NS(=O)(=O)c1ccc(Br)s1)c1ccc(Cl)cc1Cl [Tasisulam sodium] | inactive: -0.811 | inactive: 1.89 | active: 12.2
35 | C#C[C@@]1(O)[C@@H](CO)O[C@@H](n2ccc(N)nc2=O)[C@@H]1O [ethynylcytidine] | inactive: -1.29 | inactive: -2.56 | inactive: -1.98
36 | CC(C)(N)c1ccc(C(F)(F)C(F)(F)c2ccccc2)cc1 | inactive: -1.29 | inactive: 0.0955 | inactive: 1.54
37 | NC(=O)c1cc[n+](CC2=C(C(=O)[O-])N3C(=O)[C@@H](NC(=O)Cc4cccs4)[C@H]3SC2)cc1 | inactive: -1.95 | inactive: -1.27 | inactive: -1.34
